Publication PMC8616452
These are yes or no findings as the source states them, for the method shown. Binding seen in cells or lysates may run through a third protein. Here binding means that the protein was enriched with, or labelled near, the bait; the list need not be complete.

The chains behind the UniProt entries cited, without tags or fusion partners.
UniProt Q5U301: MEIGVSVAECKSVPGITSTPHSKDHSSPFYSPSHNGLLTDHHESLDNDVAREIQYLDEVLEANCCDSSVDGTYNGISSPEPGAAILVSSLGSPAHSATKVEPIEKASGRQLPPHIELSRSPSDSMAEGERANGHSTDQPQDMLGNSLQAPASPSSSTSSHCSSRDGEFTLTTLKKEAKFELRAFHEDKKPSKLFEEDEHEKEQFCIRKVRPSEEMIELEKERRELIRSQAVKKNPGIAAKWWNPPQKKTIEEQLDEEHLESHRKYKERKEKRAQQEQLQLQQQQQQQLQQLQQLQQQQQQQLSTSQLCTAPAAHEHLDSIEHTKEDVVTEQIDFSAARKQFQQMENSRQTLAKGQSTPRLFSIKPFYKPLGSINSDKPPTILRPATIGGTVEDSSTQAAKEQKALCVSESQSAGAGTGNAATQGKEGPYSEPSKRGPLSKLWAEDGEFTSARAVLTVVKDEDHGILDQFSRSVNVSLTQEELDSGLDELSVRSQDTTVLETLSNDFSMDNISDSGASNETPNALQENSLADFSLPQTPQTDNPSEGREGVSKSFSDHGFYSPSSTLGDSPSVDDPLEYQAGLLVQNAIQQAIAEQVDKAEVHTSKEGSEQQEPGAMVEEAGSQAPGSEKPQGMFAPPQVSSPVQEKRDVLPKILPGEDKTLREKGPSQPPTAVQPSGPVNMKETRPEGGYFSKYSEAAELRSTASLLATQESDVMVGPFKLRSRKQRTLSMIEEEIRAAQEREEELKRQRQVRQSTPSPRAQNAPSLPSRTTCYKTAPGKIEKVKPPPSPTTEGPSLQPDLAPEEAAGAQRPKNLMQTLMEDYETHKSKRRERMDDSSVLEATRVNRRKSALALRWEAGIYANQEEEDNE

Molecular target: A-kinase anchoring protein 2 (AKAP2) (rat (endogenous in rat heart and rat NVMs)) (UniProt Q5U301)
Assay: affinity purification with mass spectrometry; endogenous AKAP2 immunoprecipitated from 40 mg of rat heart proteins with 22 µg anti-AKAP2 or control antibodies, protein-G sepharose; lysis in buffer A (20 mM Tris-HCl pH 7.4, 150 mM NaCl, 1% Triton X-100, 0.1% sodium deoxycholate); washes with buffer A containing 300 mM NaCl; shotgun LC-MS/MS

B1: nucleoporin 35 (NUP35) (protein, UniProt Q68FY1 1-325)
chain: MAAFAVDPQAPTLGSEPMMLGSPTSPKPGANAQFLPGFLMGDLPAPVTPQPRSISGPSVGVMEMRSPLLAGGSPPQPVVPAHKDKSGAPPVRSIYDDISSPGLGSTPLPSRRQANISVLQSPLVGVTTPVTGQSMFSPANIGQPRKTTLSPAQLDPFYTQGDSLTSEDHLDDTWVTVFGFPQASASYILLQFAQYGNILKHVMSNTGNWMHIRYQSKLQARKALSKDGRIFGESIMIGVKPCIDKNVMENSDRGVLSSPSLAFTPPIRTLGTPTQPGSTPRVSTMRPLATAYKASTSDYQVISDRQTPKKDESLVSRAMEYMFGW
binding: binds
